Drawing on article PMC7518614, this text covers binding for six molecules.

Sequences of proteins named here, by UniProt entry; tags and fusion partners are left off.
UniProt Q9CW03: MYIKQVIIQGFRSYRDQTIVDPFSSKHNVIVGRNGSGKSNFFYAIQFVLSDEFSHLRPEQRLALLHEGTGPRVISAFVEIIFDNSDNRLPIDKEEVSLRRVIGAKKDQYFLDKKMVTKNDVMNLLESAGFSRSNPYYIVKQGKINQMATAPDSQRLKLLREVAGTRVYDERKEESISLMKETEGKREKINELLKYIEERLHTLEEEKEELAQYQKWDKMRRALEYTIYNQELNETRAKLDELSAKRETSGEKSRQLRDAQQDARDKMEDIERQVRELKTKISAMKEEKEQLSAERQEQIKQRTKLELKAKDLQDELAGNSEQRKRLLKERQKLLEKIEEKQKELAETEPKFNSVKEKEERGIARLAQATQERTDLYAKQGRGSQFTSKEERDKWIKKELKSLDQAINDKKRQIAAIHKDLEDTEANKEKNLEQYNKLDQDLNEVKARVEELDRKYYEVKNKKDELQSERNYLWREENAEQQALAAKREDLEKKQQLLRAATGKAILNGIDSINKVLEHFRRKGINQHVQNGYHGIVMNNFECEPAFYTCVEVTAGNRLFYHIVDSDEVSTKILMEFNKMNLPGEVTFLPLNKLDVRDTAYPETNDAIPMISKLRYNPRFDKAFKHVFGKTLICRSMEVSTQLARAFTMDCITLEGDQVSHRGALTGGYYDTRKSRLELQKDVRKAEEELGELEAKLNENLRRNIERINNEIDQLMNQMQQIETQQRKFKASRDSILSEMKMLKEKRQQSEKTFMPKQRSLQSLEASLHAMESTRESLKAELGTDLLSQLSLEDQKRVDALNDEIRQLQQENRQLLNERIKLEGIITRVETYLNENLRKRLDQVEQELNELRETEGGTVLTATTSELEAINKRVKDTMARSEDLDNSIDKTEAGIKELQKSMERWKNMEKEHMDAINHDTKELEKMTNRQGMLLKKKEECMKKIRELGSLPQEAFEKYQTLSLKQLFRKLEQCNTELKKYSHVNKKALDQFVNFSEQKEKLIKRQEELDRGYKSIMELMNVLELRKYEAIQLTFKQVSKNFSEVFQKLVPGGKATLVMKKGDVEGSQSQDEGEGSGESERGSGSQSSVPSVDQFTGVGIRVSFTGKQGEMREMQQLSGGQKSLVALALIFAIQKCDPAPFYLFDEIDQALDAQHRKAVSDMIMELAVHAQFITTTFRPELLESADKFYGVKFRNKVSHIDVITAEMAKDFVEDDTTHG

These are yes or no findings as the source states them, for the method shown. In cells and extracts the contact can be indirect. Here binding means that the protein was enriched with, or labelled near, the bait; the list need not be complete. Where a sequence is shown, tags or fusion partners need not be part of it.

For the assay, the target named is T1, HORMAD1 (mouse (endogenous in testis)) (UniProt Q9D5T7).
T1 sequence: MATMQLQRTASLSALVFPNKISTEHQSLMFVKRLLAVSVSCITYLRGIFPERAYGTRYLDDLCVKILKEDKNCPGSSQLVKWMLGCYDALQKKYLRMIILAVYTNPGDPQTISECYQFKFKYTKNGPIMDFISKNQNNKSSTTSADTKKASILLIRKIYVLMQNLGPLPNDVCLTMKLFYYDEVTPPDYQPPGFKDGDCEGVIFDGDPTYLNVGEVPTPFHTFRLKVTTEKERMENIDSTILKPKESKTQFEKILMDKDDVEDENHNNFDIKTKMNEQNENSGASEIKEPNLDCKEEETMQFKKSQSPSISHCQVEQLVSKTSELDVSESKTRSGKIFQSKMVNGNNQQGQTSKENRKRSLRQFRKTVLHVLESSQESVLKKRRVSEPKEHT
In words: affinity purification with mass spectrometry; IP with rabbit anti-HORMAD1 antibody cross-linked to protein A-Dynabeads from chromatin-bound extracts (400 mM KCl) of WT mouse testes enriched for preleptotene/leptotene spermatocytes (WIN 18,446 then RA); washed with high salt extraction buffer; LC-MS/MS; proteins of the control IgG IP subtracted.

Consider SMC3 (from UniProt Q9CW03 1-1217), for which the binding result was “binds”.

B1: SMC1β (protein, UniProt Q920F6 1-1248)
chain: MGHLELLLVENFKSWRGRQVIGPFKRFTCIIGPNGSGKSNVMDALSFVMGEKTTNLRVKNIQELIHGAHTGKPVSSSASVTIIYIEDSGEEKTFTRIIRGGCSEYHFGDKPVSRSVYVAQLENIGIIVKAQNCLVFQGTVESISMKKPKERTQFFEEISTSGEFIGEYEAKKKKLQKAEEDAQFHFNVKKNVAAERKHAKIEKEEAEHYQNLLEELKINKIQLMLFQLYYNEEKINVLNTELEQMDGNLSVVKDTLSHHENIFKAKKKDYGMLTRQLQQTAKELKSVEAILNQKRPQYIKAKENTSHHLKKLDLSKKLITDNEKQCSKQEDGIRALVAELADLDRAWKSFEKQMEEKILQKGRDIELENSQLDRYKLLKEQVRRKVGIMTQQLEKLQWEQKAEKERLAFEKRRHGDTQGNLKQIKEQIEEHKKRIEKLEEYTKTCMDCLEDKKQQEEALKKEIENTKSRMSEVNEELSLIRNELQNAGIDNHEGKRQQKRAEVLEHLKRLYPDSVFGRLLDLCHPIHKKYQLAVTKLFGRYMVAIVVASEKIAKDCIRFLKAERAEPETFLALDYLDIKPINERLREIKGCKMMIDVIKTQFPQLKKVIQFVCGNGLVCETVEEARHIAFGGPERRKAVALDGTLFLKSGVISGGSSDLKHKALCWDEKELHNLRDKRSQLVQELKELMKTLRKETDLKQIQTLVQGTNTRLKYSQNELEMIKKKHLATFYREQSQLQSELLNIDSQCTMLSEGINKQQQKIEEFQDKIDEVEDDIFQDFCEEIGVENIREFENKHVKQQQENDQKRLEFEKQKTRLNIQLEYSRNQLKKKLNNIDTLKTTIQKGKEDIDNLKKTEEECLKIVEELMVKQEQIKEVLATQSSNIEKIHIQIEEERKKVLAVDREVGKLQKEVVIIQGSLEQKLLEKHNLLLDCKVQDIDISLVLGSLEDIIEMELTETESTQATADIYEKEASIQIDYSPLREDLKALQSDKEVEAHLTLLLQQVASQENTLLKTTAPNLRAQENLKTVRDKFQESADVFEASRKEARICRQEFEQVKRRRYDAFSQCFEHISVSIDQIYKKLCRNNSAQAFLSPENPEEPYLDGISYNCVAPGKRFMPMDNLSGGEKCVAALALLFAVHSFRPAPFFVLDEVDAALDNTNIGKVSSYIKEQSQEQFQMIIISLKEEFYSKADALIGVYPEHNECMFSHVLTLDLSKYPDTEDQEGSRSHRKPRVPRVSMSPKSPQSR
Take B1: the binding entry is given as “binds”.

B2: STAG3 (protein, UniProt O70576 1-1240)
chain: MPTLWSPSTQHHGSSSGSESSPLQKSVRRAQMALSPCSSSILPCDDRDSQGTAEWDSPSTNEDSDFEDSLRRNVKKRAAKQPPKAVPAAKHRKKQSRIVSSGNGKNESVPSTNYLFDAVKAARSCMQSLVDEWLDNYKQDENAGFLELINFFIRACGCKSTVTPEMFKTMSNSEIIQHLTEEFNEDSGDYPLTAPGPSWKKFQGSFCEFVKTLVYQCQYSLLYDGFPMDDLISLLIGLSDSQVRAFRHTSTLAAMKLMTSLVKVALQLSLHKDNNQRQYEAERNKGPEQRAPERLESLLEKRKEFQENQEDIEGMMNAIFRGVFVHRYRDILPEIRAICIEEIGYWMQSYSTSFLNDSYLKYIGWTLHDKHKEVRLKCVKALAGLYSNQELSLRMELFTNRFKDRMVSMVMDRECEVAVEAIRLLTLILKNMEGVLTSADCEKIYSIVYISNRAMASSAGEFVYWKIFHPECGAKAVSDRERRRSPQAQKTFIYLLLAFFMESEHHNHAAYLVDSLWDCAGSYLKDWESLTNLLLQKDQNLGDMQERMLIEILVSSARQAAEGHPPVGRITGKKSLTAKERKLQAYDKMKLAEHLIPLLPQLLAKFSADAENVAPLLQLLSYFDLSIYCTQRLEKHLELLLQQLQEVVVKHVEPEVLEAAAHALYLLCKPEFTFFSRVDFARSQLVDFLTDRFQQELDDLMQSSFLDEDEVYSLTATLKRLSAFYNAHDLTRWEISEPCSRLLRKAVDTGEVPHQVILPALTLVYFSILWTVTHISESTSHKQLMSLKKRMVAFCELCQSCLSDVDPEIQEQAFVLLSDLLLIFSPQMIVGGRDFLRPLVFFPEATLQSELASFLMDHVFLQPGELGNGQSQEDHVQIELLHQRRRLLAGFCKLLLYGVLELDAASDVFKHYNKFYEDYGDIIKETLTRARQIDRCQCSRILLLSLKQLYTELIQEQGPQGLTELPAFIEMRDLARRFALSFGPQQLHNRDLVVMLHKEGIKFSLSELPPAGSSHEPPNLAFLELLSEFSPRLFHQDKRLLLSYLEKCLQRVSKAPNHPWGPVTTYCHSLHPLEITAEASPRGPPHSKKRCVEGPCRPQEEESSSQEESLQLNSGPTTPTLTSTAVKRKQSLRTVGKKQKGRPGPGPGPGPELICSQQLLGTQRLKMSSAPCFQIRCDPSGSGLGKQLTRLSLMEEDEEEELRLLDEEWQRGDKMLHSPSSPSEHGLDLLDTTELNMEDF
On to B2, for which the binding result is listed as “binds”.

B3: SYCP1 (protein, UniProt Q62209 1-993)
chain: MEKQKPFTLFVPPRLSSSQVSAVKPQTAGGDSNYFKTANKCTEGDFGVPFTMSSRENIDKDPAFQKLSILPMLEQVANSGSCHYQEGVNDSDFENSEPMSRLYSKLYKEAEKIKKWKVSIESELKQKENKLQENRKIIEAQRKAIQELQFENEKVSLKLEEEIQENKDLIKENNATIHWCNLLKETCARSAEKTNKYEYEREETRQVYVDLNSNIEKMILAFEELRVQAENARLEMHFKLKEDHEKIQHLEEEYQKEVNNKENQVSELLIQSAEKENKMKDLTFLLEESRDKANQLEEKTKLQDENLKELSEKKDHLTSELEDIKMSMQRSMSTQKALEEDLQIATKTISQLTEVKEAQMEELNKAKTTHSFVVTELKATTCTLEELLRTEQQRLEKNEDQLKLITVELQKKSNELEEMTKFKNNKEVELEELKNILAEDQKLLDEKKQVEKLAEELQEKEQELTFLLETREKEVHDLQEQVTVTKTSEQHYLKQVEEMKTELEKEKLKNTELTASCDMLLLENKKFVQEASDMALELKKHQEDIINCKKQEERLLKQIENLEEKEMHLRDELESVRKEFIQQGDEVKCKLDKSEENARSIECEVLKKEKQMKILESKCNNLKKQVENKSKNIEELHQENKTLKKKSSAEIKQLNAYEIKVSKLELELESTKQRFEEMTNNYQKEIENKKISEGKLLGEVEKAKATVDEAVKLQKEIDLRCQHKIAEMVALMEKHKHQYDKIVEERDSELGLYKNREQEQSSAKIALETELSNIRNELVSLKKQLEIEKEEKEKLKMAKENTAILKDKKDKKIQASLLESPEATSWKFDSKTTPSQNISRLSSSMDSGKSKDNRDNLRASAKSILPTTVTKEYTVKTPTKKSIYQRENKYIPTGGSNKKRKTAFEFDVNSDSSETADLLSLVSEEDVSNRLYDNNPPDSHLLVKTPKQTPLSLSTPASFMKFGSLKKMREDRWTTIAKIDRKRRLKEAEKLFS
For the molecule B3, the binding result is on record as “binds”.

B4: SYCP3 (protein, UniProt P70281 1-254)
chain: MLRGCGDSDSSPEPLSKHLKMVPGGRKHSGKSGKPPLVDQPKKAFDFEKDDKDLSGSEEDVADEKAPVIDKHGKKRSAGIIEDVGGEVQNMLEKFGADINKALLAKRKRIEMYTKASFKASNQKIEQIWKTQQEEIQKLNNEYSQQFMNVLQQWELDIQKFEEQGEKLSNLFRQQQKIFQQSRIVQSQRMFAMKQIHEQFIKSLEDVEKNNDNLFTGTQSELKKEMAMLQKKVMMETQQQEMANVRKSLQSMLF
Take B4: the binding result was “binds”.

B5: PDS5B (protein, UniProt Q4VA53 1-1446)
chain: MAHSKTRTNDGKITYPPGVKEISDKISKEEMVRRLKMVVKTFMDMDQDSEEEKELYLNLALHLASDFFLKHPDKDVRLLVACCLADIFRIYAPEAPYTSPDKLKDIFMFITRQLKGLEDTKSPQFNRYFYLLENIAWVKSYNICFELEDSNEIFTQLYRTLFSVINNGHNQKVHMHMVDLMSSIICEGDTVSQELLDTVLVNLVPAHKNLNKQAYDLAKALLKRTAQAIEPYITNFFNQVLMLGKTSISDLSEHVFDLILELYNIDSHLLLSVLPQLEFKLKSNDNEERLQVVKLLAKMFGAKDSELASQNKPLWQCYLGRFNDIHVPIRLECVKFASHCLMNHPDLAKDLTEYLKVRSHDPEEAIRHDVIVSIVTAAKKDILLVNDHLLNFVRERTLDKRWRVRKEAMMGLAQIYKKYSLQSAAGKDAAKQISWVKDKLLHIYYQNSIDDRLLVERIFAQYMVPHNLETTERMKCLYYLYATLDLNAVKALNEMWKCQNLLRHQVKDLLDLIKQPKTDASVKAIFSKVMVITRNLPDPGKAQDFMKKFTQVLEDDEKIRKQLEALVSPTCSCKQAEGCVREITKKLGNPKQPTNPFLEMIKFLLERIAPVHIDTESISALIKQVNKSIDGTADDEDEGVPTDQAIRAGLELLKVLSFTHPISFHSAETFESLLACLKMDDEKVAEAALQIFKNTGSKIEEDFPHIRSALLPVLHHKSKKGPPRQAKYAIHCIHAIFSSKETQFAQIFEPLHKSLDPSNLEHLITPLVTIGHIALLAPDQFAAPLKSLVATFIVKDLLMNDRLPGKKTTKLWVPDEEVSPETMVKIQAIKMMVRWLLGMKNNHSKSGTSTLRLLTTILHSDGDLTEQGKISKPDMSRLRLAAGSAIVKLAQEPCYHEIITLEQYQLCALAINDECYQVRQVFAQKLHKGLSRLRLPLEYMAICALCAKDPVKERRAHARQCLVKNITVRREYLKQHAAVSEKLLSLLPEYVVPYTIHLLAHDPDYVKVQDIEQLKDVKECLWFVLEILMAKNENNSHAFIRKMVENIKQTKDAQGPDDTKMNEKLYTVCDVAMNIIMSKSTTYSLESPKDPVLPARFFTQPDKNFSNTKNYLPPEMKSFFTPGKPKTANVLGAVNKPLSSAGKQSQTKSSRMETVSNASSSSNPSSPGRIKGRLDSSEMDHSENEDYTMSSPLPGKKSDKREDPDLSELEKPRSRKKAPVTDPEEKLGMDDLTKLVQEQKPKGSQRGRKRGRTASDSDEQQWPEEKRHKEELLENEDEQNSPPKKGKRGRPPKPLGGGTSKEEPTMKTSKKGNKKKLVPPVVDDDEEEERQIGNTEHKSKSKQHRTSKRAQQRAESPETSAVESTQSTPQKGRGRPSKAPSPSQPPKKIRVGRSKQVATKENDSSEEMDVLQASSPVSDDTTQEGAEEEDISVGNVRRRSSKRERR
For B5, the binding entry is given as “binds”.
